No constants are given. Whether binding was seen depends on the method and setting. Binding calls can cover weak binding; strength is not graded here.
Assays:
Experiment in all cases: two-hybrid; ZmFLZ25 against the 14 Arabidopsis ABA receptors in yeast; bait and prey not stated for this experiment
PYL8 (Arabidopsis) = molecular target: T1, PYL8 (Arabidopsis) (UniProt Q9FGM1)
T1 sequence: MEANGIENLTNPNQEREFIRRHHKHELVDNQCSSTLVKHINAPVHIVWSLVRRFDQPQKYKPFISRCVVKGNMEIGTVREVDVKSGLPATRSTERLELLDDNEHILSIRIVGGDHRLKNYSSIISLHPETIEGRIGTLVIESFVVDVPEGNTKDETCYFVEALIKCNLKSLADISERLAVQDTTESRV

PYL13 (Arabidopsis) = molecular target: T2, PYL13 (Arabidopsis) (UniProt Q9SN51)
T2 sequence: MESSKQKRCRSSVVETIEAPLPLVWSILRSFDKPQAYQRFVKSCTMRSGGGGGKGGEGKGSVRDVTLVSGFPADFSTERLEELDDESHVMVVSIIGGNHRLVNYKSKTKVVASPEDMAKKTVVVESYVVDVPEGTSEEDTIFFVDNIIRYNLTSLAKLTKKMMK

PYL12 (Arabidopsis) = molecular target: T3, PYL12 (Arabidopsis) (UniProt Q9FJ49)
T3 sequence: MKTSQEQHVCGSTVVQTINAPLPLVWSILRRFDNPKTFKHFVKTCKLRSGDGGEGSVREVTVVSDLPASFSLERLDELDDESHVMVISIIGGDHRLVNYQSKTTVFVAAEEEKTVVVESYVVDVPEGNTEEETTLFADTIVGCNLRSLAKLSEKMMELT

PYL4 (Arabidopsis) = molecular target: T4, PYL4 (Arabidopsis) (UniProt O80920)
T4 sequence: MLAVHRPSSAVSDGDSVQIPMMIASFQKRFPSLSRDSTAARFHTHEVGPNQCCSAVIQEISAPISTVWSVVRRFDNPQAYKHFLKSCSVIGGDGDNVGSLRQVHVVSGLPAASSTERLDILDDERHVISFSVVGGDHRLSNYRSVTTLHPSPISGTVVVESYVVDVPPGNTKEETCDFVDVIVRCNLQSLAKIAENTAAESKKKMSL

binding (PYL8 (Arabidopsis)): binds | binding (PYL13 (Arabidopsis)): binds | binding (PYL12 (Arabidopsis)): binds | binding (PYL4 (Arabidopsis)): binds
Substance: ZmFLZ25 (maize (Zea mays))
